# Results from one PubChem assay

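IOSE-T80 ovarian epithelial cells, a line not reliant on PAX8, given compound for 96 h, with viability tracked through ATP-driven luciferase light. Percent change in signal scaled so neutral controls are 0 and the cytotoxic control is -100; more negative values mean greater loss of viability. Per repeat run, active means fitted AC50 at or below twice the top valid dose; inactive means a flat curve between -30% and 30%, an opposite effect, or AC50 above that limit; inconclusive means a flat -30% to -70% curve, a poor fit, or runs that disagree.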

Values are in %. Every entry below has the call inconclusive. Only part of the assay is shown, chiefly results filed as inconclusive.

{"compound": "COc1ccc(/C=c2/sc3n(c2=O)C(c2ccccc2OC)C2=C(N=3)c3ccccc3CC2)cc1O", "stereo": "centres undefined", "tested on / at": "at 35 µM (top of the series)", "activity change (%)": "7.363"}
{"compound": "CC(=NNc1ccc2ccccc2n1)c1ccccn1", "tested on / at": "at 35 µM (top of the series)", "activity change (%)": "10.69"}
{"compound": "Cc1ccc(S(=O)(=O)Nc2ccc3c(c2)CC(=O)N([C@@H](C)CO)C[C@H](C)[C@@H](CN(C)C(=O)Nc2ccc(C(F)(F)F)cc2)O3)cc1", "tested on / at": "at 35 µM (top of the series)", "activity change (%)": "6.921"}
{"compound": "CC(C)(C)OC(=O)[C@H](Cc1ccccc1)NC(=O)c1nc[nH]c1C(=O)N[C@@H](Cc1ccccc1)C(=O)OC(C)(C)C", "tested on / at": "at 35 µM (top of the series)", "activity change (%)": "2.517"}
{"compound": "CC(C1CC1)N(Cc1ccccc1)C(=S)Nc1cccc(C(F)(F)F)c1", "stereo": "centres undefined", "tested on / at": "at 35 µM (top of the series)", "activity change (%)": "4.287"}
{"compound": "COc1cc(-c2c(-c3cc(OC)c(OC)c(OC)c3)noc2C)ccc1F", "tested on / at": "at 35 µM (top of the series)", "activity change (%)": "4.025"}
{"compound": "CN(C)CCNC(=O)c1cc2c(s1)-c1ccc(Cl)cc1SC2", "tested on / at": "at 35 µM (top of the series)", "activity change (%)": "8.101"}
{"compound": "O=C(NC(Nc1nc2ccc([N+](=O)[O-])cc2s1)(C(F)(F)F)C(F)(F)F)c1ccccc1Cl", "tested on / at": "at 35 µM (top of the series)", "activity change (%)": "10.74"}
{"compound": "C[C@@H]1CCCCO[C@H](CN(C)Cc2ccc(Cl)c(Cl)c2)[C@H](C)CN([C@@H](C)CO)C(=O)c2cc(NC(=O)Nc3ccccc3)ccc2O1", "tested on / at": "at 35 µM (top of the series)", "activity change (%)": "56.97"}
{"compound": "O=C(c1ccc(Br)cc1)c1cc([N+](=O)[O-])ccc1N1CCCCC1", "tested on / at": "at 35 µM (top of the series)", "activity change (%)": "-1.45"}
{"compound": "Cc1ccc2nc(NNC(=O)c3ccc(S(=O)(=O)N4CCc5ccccc5C4)cc3)sc2c1", "tested on / at": "at 35 µM (top of the series)", "activity change (%)": "6.948"}
{"compound": "CCOC(=O)N1CCC(NC(=O)c2ccc3c(c2)N=C(C)c2c(C)ccc(C)c2S3)CC1", "tested on / at": "at 35 µM (top of the series)", "activity change (%)": "3.051"}
{"compound": "O=S(=O)(Nc1cc(Sc2ncn[nH]2)c(O)c2ccccc12)c1ccccc1", "tested on / at": "at 35 µM (top of the series)", "activity change (%)": "-7.805"}
{"compound": "CCCCC(=O)NC(c1ccccc1OC)c1ccc2cccnc2c1O", "stereo": "centres undefined", "tested on / at": "at 35 µM (top of the series)", "activity change (%)": "5.142"}
{"compound": "Oc1c(Cl)cc(CN2CCOCC2)c2cccnc12", "tested on / at": "at 35 µM (top of the series)", "activity change (%)": "4.52"}
{"compound": "CN(C)CC#Cc1ccc([C@@H]2[C@H](CO)N3CCCCN(C(=O)Nc4ccc(F)cc4)C[C@@H]23)cc1", "tested on / at": "at 35 µM (top of the series)", "activity change (%)": "2.347"}
{"compound": "C[C@H](CO)N1C[C@H](C)[C@H](CN(C)Cc2ccc(-c3ccccc3)cc2)Oc2ccc(NS(=O)(=O)c3ccc(F)cc3)cc2CC1=O", "tested on / at": "at 35 µM (top of the series)", "activity change (%)": "3.094"}
{"compound": "O=C1C(=O)c2cccnc2-c2ncccc21", "tested on / at": "at 35 µM (top of the series)", "activity change (%)": "6.569"}
{"compound": "O=C(NCCc1ccccc1)c1ccc2c(c1)OCCCO2", "tested on / at": "at 35 µM (top of the series)", "activity change (%)": "6.526"}
{"compound": "Cc1nc2sc(C(c3ccco3)N3CCN(C(c4ccccc4)c4ccccc4)CC3)c(O)n2n1", "stereo": "centres undefined", "tested on / at": "at 35 µM (top of the series)", "activity change (%)": "2.256"}
{"compound": "Cn1c(=O)[nH]c(=O)c2c1nc([N+](=O)[O-])n2Cc1ccccc1", "tested on / at": "at 35 µM (top of the series)", "activity change (%)": "8.713"}
{"compound": "CCOC(=O)c1ccc(NC(=O)Cn2ncc(Cl)c(Cl)c2=O)cc1", "tested on / at": "at 35 µM (top of the series)", "activity change (%)": "5.742"}
{"compound": "COc1ccc(C(=O)c2ccc(Cl)c([N+](=O)[O-])c2)cc1", "tested on / at": "at 35 µM (top of the series)", "activity change (%)": "-0.079"}
{"compound": "COC(=O)[C@]12CCCCC=C1N(Cc1cccc3ccccc13)C(=O)[C@H](CC(=O)N1CCN(C(=O)c3ccco3)CC1)C2", "tested on / at": "at 35 µM (top of the series)", "activity change (%)": "6.11"}
{"compound": "O=c1cc(C(Cl)(Cl)Cl)oc2c1ccc1ccccc12", "tested on / at": "at 35 µM (top of the series)", "activity change (%)": "2.428"}
{"compound": "COc1ccc(C(=O)N/N=C/c2ccc(OC(=O)c3cccs3)cc2)cc1", "tested on / at": "at 35 µM (top of the series)", "activity change (%)": "9.427"}
{"compound": "Cc1ccc(Cl)cc1NC1=C/C(=N\\S(=O)(=O)c2cccs2)c2ccccc2C1=O", "tested on / at": "at 35 µM (top of the series)", "activity change (%)": "8.041"}
{"compound": "COc1ccc(C)cc1NC(=O)C1CCCN(S(=O)(=O)c2cccc3nonc23)C1", "stereo": "centres undefined", "tested on / at": "at 35 µM (top of the series)", "activity change (%)": "10.44"}
{"compound": "CCOc1ccc2nc(N/C(N)=N/C(=S)Nc3ccc(C)c(C)c3)nc(C)c2c1", "tested on / at": "at 35 µM (top of the series)", "activity change (%)": "4.74"}
{"compound": "COc1ccc(NC(=O)c2nn(C34CC5CC(CC(C5)C3)C4)cc2[N+](=O)[O-])cc1", "tested on / at": "at 35 µM (top of the series)", "activity change (%)": "1.652"}
{"compound": "CCN(CC)S(=O)(=O)c1cccc(NC(=O)Nc2cccc(C(F)(F)F)c2)c1", "tested on / at": "at 35 µM (top of the series)", "activity change (%)": "5.968"}
{"compound": "COC(=O)C1=C(C)N(Cc2ccc(C(F)(F)F)cc2)C(=NCc2ccccc2)NC1c1cccc(F)c1", "stereo": "centres undefined", "tested on / at": "at 35 µM (top of the series)", "activity change (%)": "10.96"}
{"compound": "O=C(CN1C(=O)c2ccccc2S1(=O)=O)c1ccc(Cl)cc1Cl", "tested on / at": "at 35 µM (top of the series)", "activity change (%)": "5.538"}
{"compound": "C[C@H](CO)N1C[C@H](C)[C@@H](CN(C)Cc2ccc(Cl)c(Cl)c2)Oc2ccc(NC(=O)Nc3ccc(F)cc3)cc2CC1=O", "tested on / at": "at 35 µM (top of the series)", "activity change (%)": "6.605"}

3 of the entries, repeated:

- CCOC(=O)c1ccc(NC(=O)Cn2ncc(Cl)c(Cl)c2=O)cc1 [at 35 µM (top of the series)] : activity change 5.742%
- O=C(c1ccc(Br)cc1)c1cc([N+](=O)[O-])ccc1N1CCCCC1 [at 35 µM (top of the series)] : activity change -1.45%
- COc1cc(-c2c(-c3cc(OC)c(OC)c(OC)c3)noc2C)ccc1F [at 35 µM (top of the series)] : activity change 4.025%

From PubChem BioAssay record AID687032 (Broad Institute, 2013).